Laboratory results from patent US7723326B2, “Heterocyclic amide derivatives as RXR agonists for the treatment of dyslipidemia, hypercholesterolemia and diabetes” (Janssen Pharmaceutica N.V., priority 2005, dated 2010).
The name of at least one read-out is uncertain.

Test system: ABCA1 mRNA in THP-1 cells
Experiment: ABCA1 bDNA assay (ABCA1 mRNA induction)
Format: cell-based, human
Conditions: concentration not given
Method: THP-1 cells, a human monocytic cell line, were obtained from ATCC and maintained in RPMI (Gibco) supplemented with 10% fetal bovine serum (Gibco), 2mM L-glutamine and 1% antibiotic-antimycotic in 5% CO2 at 37° C. For ABCA1 mRNA induction assays, the cells were pelleted and resuspended in RPMI supplemented with 0.5% charcoal treated serum (Hyclone), 2 mM glutamine and 1% antibiotic-antimycotic. The cells were plated at a density of 40,000 cells/90 μl and incubated as above for at least 4 hours before the initiation of treatments. Compounds were prepared as 10 mM stocks in DMSO. For treatments, the compounds were diluted in medium and 10 μl of 10× stocks were added to the cells at a final concentration 0.1% DMSO. The cells were incubated for the desired amount of time (usually 18-24 hrs) and then lyzed with 50 μl of Quantigene HV bDNA lysis buffer which also contained the ABCA1 bDNA probes (probe sequences shown below): […]

## CCN1CC(C)(C)Oc2cc(C)c(-c3cc(/C=C/C(=O)O)ccc3OC(F)(F)F)cc21 [Compound 27, 3-[3-(4-Ethyl-2,2,7-trimethyl-3,4-dihydro-2H-benzo[1,4]oxazin-6-yl)-4-trifluoromethoxy-phenyl]-acrylic acid]
  ABCA1 % max MX-6054: (92) %
